# Experimental data from publication PMC7228134.
# Amino acid sequences for entries named in this document (tags omitted). A change or cut given only in a name is not applied to a line headed by its entry.
# UniProt Q01860: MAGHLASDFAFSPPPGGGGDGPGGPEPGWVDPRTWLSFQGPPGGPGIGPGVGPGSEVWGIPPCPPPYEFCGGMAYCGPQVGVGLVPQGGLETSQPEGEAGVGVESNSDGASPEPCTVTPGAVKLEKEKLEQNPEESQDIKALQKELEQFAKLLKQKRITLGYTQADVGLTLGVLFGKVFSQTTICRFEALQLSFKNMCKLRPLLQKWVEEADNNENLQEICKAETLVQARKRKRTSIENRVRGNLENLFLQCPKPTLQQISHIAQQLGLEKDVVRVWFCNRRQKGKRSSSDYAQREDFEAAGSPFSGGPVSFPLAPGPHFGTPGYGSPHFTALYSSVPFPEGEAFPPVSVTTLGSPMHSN
# UniProt P03129: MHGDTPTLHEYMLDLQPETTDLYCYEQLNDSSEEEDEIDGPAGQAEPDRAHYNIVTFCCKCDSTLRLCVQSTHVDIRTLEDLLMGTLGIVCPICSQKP
# UniProt P06788: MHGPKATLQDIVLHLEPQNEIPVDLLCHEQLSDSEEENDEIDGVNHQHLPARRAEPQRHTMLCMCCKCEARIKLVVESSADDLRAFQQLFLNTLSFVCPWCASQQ
# These are yes or no findings as the source states them, for the method shown. In cells and extracts the contact can be indirect. Some entries that bind do so weakly or less than the wild type.
# Experiments:
# [1] = target: Octamer binding transcription factor-4 (Oct4) (human (endogenous in HeLa and C33A)) (UniProt Q01860); assay: co-IP; endogenous Oct4 immunoprecipitated with Oct4 antibody (1ug/ml, overnight, 4°C) from RIPA lysates of HeLa cells stably expressing Flag-tagged E7; western blot
# [2] = target: Octamer binding transcription factor-4 (Oct4) (human (endogenous in HeLa and C33A)) (UniProt Q01860); assay: co-IP; endogenous Oct4 immunoprecipitated with Oct4 antibody from RIPA lysates of C33A cells transduced (pLXSN) or transfected (cmv) with HPV16 E7 wildtype or mutants; western blot
Substance,binding [1],binding [2]
Flag-tagged HPV16 E7 (from UniProt P03129 1-98),binds,
Flag-tagged HPV18 E7 (from UniProt P06788 1-105),binds,
HPV16 E7 (wildtype) (from UniProt P03129 1-98),,binds
